Patent publication US20100278829A1, “DUAL INHIBITION OF IMMUNOPHILIN/CYCLOPHILIN FAMILY MEMBERS AND EMMPRIN IMMUNOGLOBULIN RECEPTOR SUPERFAMILY MEMBERS” (priority 2009, published 2010)
Several values for one entry are separate records, joined by “and”; a condition that tells them apart may be missing. Equal values may be shown once. At least one structure is not confirmed: it was looked up by name or label, or the drawing left a doubt.

Sequences of proteins named here, by UniProt entry; tags and fusion partners are left off.
UniProt P62937, whole entry: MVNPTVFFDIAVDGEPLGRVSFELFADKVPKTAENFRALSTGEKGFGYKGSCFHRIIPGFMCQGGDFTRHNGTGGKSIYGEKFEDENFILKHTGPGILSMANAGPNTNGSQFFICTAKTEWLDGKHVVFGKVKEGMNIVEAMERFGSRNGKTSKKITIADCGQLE

Biological target: T1, CypA (Homo sapiens, UniProt P62937)
T1 construct: CypA was purified as previously described; made in house; host or cells: E. coli BL21 (DE3)
Experiment: NMR titration of 15N-CypA, binding isotherms
Conditions: chemical shift changes, 25° C.
Experimental: NMR sample preparation, spectroscopy, and data analysis. All NMR spectra were collected at 25° C. on a Varian 600-, 720- , 800-, or 900-MHz spectrometer in 50 mM NaPO4, pH 6.5, 150 mM NaCl, and 50 mM imidazole supplemented with 7% D2O. There were only modest changes to the resonance positions with imidazole present (data not shown), yet imidazole did increase the lifetime of each sample slightly and, thus, was maintained in all samples. Samples utilized for assignment purposes contained 0.5-1 mM protein, while all samples utilized for titration purposes contained 0.5 mM protein with the indicated final concentration of the titrant. All spectra were processed using NMRPipe software65 and analyzed using CCPNmr software.66 Unless otherwise noted, all pulse sequences were obtained from standard Varian Biopack libraries. Transverse relaxation optimized spectroscopy (i.e., TROSY-based) HSQC experiments were used only when noted.
NMR titration experiments were first conducted using 15N-CypA with unlabeled CD147, and chemical shift changes were only observed for extracellular recombinant CD147 constructs that included the membrane-proximal region of CD147 residues 206-214. […] However, both extracellular cyclophilin ligands of CD147, CypA and CypB, are known to readily traverse the membrane. […]

**Q.** Which Kd does the source give for `CC(C)C[C@H](NC(=O)[C@H](C)NC(=O)[C@H](C)NC(=O)[C@H](CC(C)C)NC(=O)[C@H](Cc1c[nH]cn1)NC(=O)[C@H](CO)NC(=O)CN)C(=O)N[C@@H](Cc1c[nH]c2ccccc12)C(=O)N1CCC[C@H]1C(=O)N[C@@H](Cc1ccccc1)C(=O)N[C@@H](CC(C)C)C(=O)NCC(=O)O` [CD147^10mer, HLAALWPFLG] here?
**A.** Its Kd is ~5 mM and 4.2 mM.
